Results are given in words; binding and its absence hold for the method and conditions named. For some of these results: Binding seen in cells or lysates may run through a third protein. Some entries that bind do so weakly or less than the wild type. Sequences can lack the tags named with a protein.
What was measured:
[1] = biological target: T1, Mft1pΔC336-392 with C-terminal Strep II tag (THO3) (Saccharomyces cerevisiae) (UniProt P33441); assay: SEC; co-expressed complexes purified by Strep-Tactin, Source 15Q anion exchange and Superdex 200 gel filtration (successive rounds to separate ternary from binary); 50 mM Tris-Cl pH 8.0, 100 mM KCl, 5 mM MgCl2, 5 mM 2-mercaptoethanol; densitometry of SDS-PAGE: equal stoichiometric amounts (data not shown); both purified
T1 sequence: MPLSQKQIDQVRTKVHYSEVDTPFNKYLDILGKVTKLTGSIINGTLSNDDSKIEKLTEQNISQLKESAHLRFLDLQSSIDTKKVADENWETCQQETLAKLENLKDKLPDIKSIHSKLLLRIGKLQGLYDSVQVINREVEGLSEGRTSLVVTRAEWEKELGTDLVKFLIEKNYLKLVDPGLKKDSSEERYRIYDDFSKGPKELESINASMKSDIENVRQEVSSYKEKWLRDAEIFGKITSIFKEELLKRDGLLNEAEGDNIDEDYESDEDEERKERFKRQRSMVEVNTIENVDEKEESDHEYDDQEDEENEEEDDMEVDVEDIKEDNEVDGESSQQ

[2] = biological target: T1, Mft1pΔC336-392 with C-terminal Strep II tag (THO3) (Saccharomyces cerevisiae); assay: SAXS; purified proteins or co-expressed, co-purified complexes in solution; 50 mM Tris-Cl pH 8.0, 100 mM KCl, 5 mM MgCl2, 5 mM 2-mercaptoethanol; 10°C or 25°C; 3-6 concentrations between 7.8 and 0.15 mg/ml; homodimers told from measurements at low concentrations; both purified
[3] = biological target: T1, Mft1pΔC336-392 with C-terminal Strep II tag (THO3) (Saccharomyces cerevisiae); assay: SEC-MALS; static light scattering (Zetasizer µV) inline with Superdex 200 GL 10/300, on purified co-expressed complexes; both purified
[4] = biological target: T2, Mft1pΔC270-392 with C-terminal Strep II tag (THO4) (Saccharomyces cerevisiae) (UniProt P33441); assay: SEC; co-expressed complexes purified by Strep-Tactin, Source 15Q anion exchange and Superdex 200 gel filtration (successive rounds to separate ternary from binary); 50 mM Tris-Cl pH 8.0, 100 mM KCl, 5 mM MgCl2, 5 mM 2-mercaptoethanol; densitometry of SDS-PAGE: equal stoichiometric amounts (data not shown); both purified
T2 sequence: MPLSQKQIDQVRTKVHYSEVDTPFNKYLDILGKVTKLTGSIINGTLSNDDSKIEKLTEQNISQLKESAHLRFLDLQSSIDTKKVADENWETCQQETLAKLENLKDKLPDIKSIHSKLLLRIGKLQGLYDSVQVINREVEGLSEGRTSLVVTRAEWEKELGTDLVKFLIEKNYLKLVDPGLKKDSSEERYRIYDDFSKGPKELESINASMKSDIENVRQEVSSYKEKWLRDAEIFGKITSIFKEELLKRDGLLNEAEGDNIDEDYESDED

[5] = biological target: T1, Mft1pΔC336-392 with C-terminal Strep II tag (THO3) (Saccharomyces cerevisiae); assay: pull-down; proteins co-expressed in E. coli Rosetta (DE3); clarified lysate on Ni-NTA magnetic agarose beads, then Strep-Tactin magnetic beads, eluates on Coomassie-stained SDS-PAGE, bands confirmed by mass spectrometry; small-scale and large-scale cultures; 4°C, 50 mM Tris-Cl pH 8.0, 300 mM KCl (wash 1 M KCl)
[6] = biological target: T2, Mft1pΔC270-392 with C-terminal Strep II tag (THO4) (Saccharomyces cerevisiae); assay: as above
[7] = biological target: T2, Mft1pΔC270-392 with C-terminal Strep II tag (THO4) (Saccharomyces cerevisiae); assay: SEC-MALS; static light scattering (Zetasizer µV) inline with Superdex 200 GL 10/300, on purified co-expressed complexes; both purified
[8] = biological target: T3, Mft1pΔC248-392 (TEV-cleavable C-terminal 8xHis tag) (Saccharomyces cerevisiae) (UniProt P33441); assay: SEC; co-expressed complexes purified by Ni-NTA (8xHis on Mft1p), TEV cleavage and second Ni-NTA, Source 15Q anion exchange and Superdex 200 gel filtration; Coomassie-stained SDS-PAGE; both purified
T3 sequence: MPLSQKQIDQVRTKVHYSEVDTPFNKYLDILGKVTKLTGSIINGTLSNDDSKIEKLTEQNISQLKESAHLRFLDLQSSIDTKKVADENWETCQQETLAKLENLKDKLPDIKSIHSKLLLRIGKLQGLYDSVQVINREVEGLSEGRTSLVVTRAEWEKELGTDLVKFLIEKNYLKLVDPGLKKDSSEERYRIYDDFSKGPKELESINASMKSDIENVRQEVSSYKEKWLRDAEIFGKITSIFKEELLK

[9] = biological target: T4, Mft1pΔC232-392 (TEV-cleavable C-terminal 8xHis tag) (Saccharomyces cerevisiae) (UniProt P33441); assay: as above
T4 sequence: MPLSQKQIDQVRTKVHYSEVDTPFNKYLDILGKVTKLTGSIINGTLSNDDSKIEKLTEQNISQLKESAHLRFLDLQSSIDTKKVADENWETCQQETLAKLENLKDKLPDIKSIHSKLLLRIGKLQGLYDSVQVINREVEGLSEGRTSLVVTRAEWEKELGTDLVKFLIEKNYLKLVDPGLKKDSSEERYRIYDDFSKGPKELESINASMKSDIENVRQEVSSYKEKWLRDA

[10] = biological target: T4, Mft1pΔC232-392 (TEV-cleavable C-terminal 8xHis tag) (Saccharomyces cerevisiae); assay: SAXS; purified proteins or co-expressed, co-purified complexes in solution; 50 mM Tris-Cl pH 8.0, 100 mM KCl, 5 mM MgCl2, 5 mM 2-mercaptoethanol; 10°C or 25°C; 3-6 concentrations between 7.8 and 0.15 mg/ml; homodimers told from measurements at low concentrations; both purified

Measured: binding

B1: Tho2pΔC1274-1597 with C-terminal Strep II tag (THO3) (domain or fragment, UniProt P53552 1-1273)
chain: MAEQTLLSKLNALSQKVIPPASPSQASILTEEVIRNWPERSKTLCSDFTALESNDEKEDWLRTLFIELFDFINKNDENSPLKLSDVASFTNELVNHERQVSQASIVGKMFIAVSSTVPNINDLTTISLCKLIPSLHEELFKFSWISSKLLNKEQTTLLRHLLKKSKYELKKYNLLVENSVGYGQLVALLILAYYDPDNFSKVSAYLKEIYHIMGKYSLDSIRTLDVILNVSSQFITEGYKFFIALLRKSDSWPSSHVANNSNYSSLNEGGNMIAANIISFNLSQYNEEVDKENYERYMDMCCILLKNGFVNFYSIWDNVKPEMEFLQEYIQNLETELEEESTKGVENPLAMAAALSTENETDEDNALVVNDDVNMKDKISEETNADIESKGKQKTQQDILLFGKIKLLERLLIHGCVIPVIHVLKQYPKVLYVSESLSRYLGRVFEYLLNPLYTSMTSSGESKDMATALMITRIDNGILAHKPRLIHKYKTHEPFESLELNSSYVFYYSEWNSNLTPFASVNDLFENSHIYLSIIGPYLGRIPTLLSKISRIGVADIQKNHGSESLHVTIDKWIDYVRKFIFPATSLLQNNPIATSEVYELMKFFPFEKRYFIYNEMMTKLSQDILPLKVSFNKAEREAKSILKALSIDTIAKESRRFAKLISTNPLASLVPAVKQIENYDKVSELVVYTTKYFNDFAYDVLQFVLLLRLTYNRPAVQFDGVNQAMWVQRLSIFIAGLAKNCPNMDISNIITYILKTLHNGNIIAVSILKELIITVGGIRDLNEVNMKQLLMLNSGSPLKQYARHLIYDFRDDNSVISSRLTSFFTDQSAISEIILLLYTLNLKANTQNSHYKILSTRCDEMNTLLWSFIELIKHCLKGKAFEENVLPFVELNNRFHLSTPWTFHIWRDYLDNQLNSNENFSIDELIEGAEFSDVDLTKISKDLFTTFWRLSLYDIHFDKSLYDERKNALSGENTGHMSNRKKHLIQNQIKDILVTGISHQRAFKKTSEFISEKSNVWNKDCGEDQIKIFLQNCVVPRVLFSPSDALFSSFFIFMAFRTENLMSILNTCITSNILKTLLFCCTSSEAGNLGLFFTDVLKKLEKMRLNGDFNDQASRKLYEWHSVITEQVIDLLSEKNYMSIRNGIEFMKHVTSVFPVVKAHIQLVYTTLEENLINEEREDIKLPSSALIGHLKARLKDALELDEFCTLTEEEAEQKRIREMELEEIKNYETACQNEQKQVALRKQLELNKSQRLQNDPPKSVASGSAGLNSKD
binds: [1] | [2] | [3]

B2: Thp2p with N-terminal Strep II tag (THO3, THO4) (protein, UniProt O13539 1-261)
chain: MTKEEGRTYFESLCEEEQSLQESQTHLLNILDILSVLADPRSSDDLLTESLKKLPDLHRELINSSIRLRYDKYQTREAQLLEDTKTGRDVAAGVQNPKSISEYYSTFEHLNRDTLRYINLLKRLSVDLAKQVEVSDPSVTVYEMDKWVPSEKLQGILEQYCAPDTDIRGVDAQIKNYLDQIKMARAKFGLENKYSLKERLSTLTKELNHWRKEWDDIEMLMFGDDAHSMKKMIQKIDSLKSEINAPSESYPVDKEGDIVLE
not listed: [8] | [9] | [10]
binds: all other assays above

B3: Thp2p (bicistronic pETM-13 constructs with truncated Mft1p) (protein, UniProt O13539 1-261)
chain: B2 chain
binds: [8] | [9] | [10]
